Data reported in the supplement of paper PMC6078165.
The reference is the same well before dosing, and untreated signal decays as well.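 Fibroblast labels denote human fibroblasts, mainly primary ones from uterus (C12385, HUF), lung (H6013), bone (Hs27A), adrenal (HADF) and skin (WS1), plus mammary HMF and breast cancer-associated Hs343T. Cancer cells are basal-like or mesenchymal-like triple-negative breast cancer lines. A hit is a response shift exceeding 3x replicate standard deviation. The tissue of the other fibroblasts is not given here.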

Tested on: MDAMB436
Experiment: relative JC-1 red fluorescence (viability) vs pre-drug, coculture with fibroblast (fraction); higher = more viable cancer cells
Protocol: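 JC-1 labelled TNBC cells cocultured 1:1 (1,500 cells each) with CellTrace Violet stained primary or stromal fibroblasts in 384-well plates in FluoroBrite medium, treated with one of 42 anticancer drugs at 0.1, 1, 10 or 100 uM. JC-1 red fluorescence (mitochondrial integrity in cancer cells only) was read by plate reader every 8 h for 72 h. Values are normalised to each well's pre-drug value. The stock of one drug was tenfold lower, so its dose labels may be too high.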

COc1cc([C@@H]2c3cc4c(cc3[C@@H](O[C@@H]3O[C@@H]5CO[C@@H](C)O[C@H]5[C@H](O)[C@H]3O)[C@H]3COC(=O)[C@H]23)OCO4)cc(OC)c1O [Etoposide]
relative JC-1 red fluorescence
Details	8 h	16 h	24 h	32 h	40 h	48 h	56 h	64 h	72 h
0.1 µM, coculture fibroblast: C12385	0.769	0.71	0.699	0.625	0.588	0.576	0.575	0.566	0.576
0.1 µM, coculture fibroblast: H6013	0.8281	0.778	0.782	0.769	0.769	0.801	0.767	0.771	0.737
0.1 µM, coculture fibroblast: H6019	0.753	0.715	0.707	0.642	0.626	0.618	0.596	0.579	0.554
0.1 µM, coculture fibroblast: H6076	0.673	0.623	0.6317	0.609	0.614	0.591	0.613	0.613	0.614
0.1 µM, coculture fibroblast: H6231	0.766	0.7277	0.75763	0.679	0.666	0.643	0.636	0.613	0.601
0.1 µM, coculture fibroblast: HADF	0.7748	0.7	0.678	0.644	0.639	0.673	0.62	0.617	0.583
0.1 µM, coculture fibroblast: HCFa	0.776	0.7216	0.6939	0.672	0.662	0.689	0.625	0.623	0.564
0.1 µM, coculture fibroblast: HCPF	0.7325	0.666	0.666	0.607	0.595	0.571	0.554	0.546	0.534
0.1 µM, coculture fibroblast: HHSteC	0.785	0.762	0.738	0.709	0.709	0.731	0.678	0.663	0.614
0.1 µM, coculture fibroblast: HMF	0.703	0.642	0.634	0.593	0.588	0.56	0.572	0.565	0.572
0.1 µM, coculture fibroblast: HPFa	0.903	0.858	0.842	0.805	0.803	0.819	0.7359	0.71	0.644
0.1 µM, coculture fibroblast: HUF	0.837	0.769	0.755	0.686	0.641	0.626	0.61	0.614	0.612
0.1 µM, coculture fibroblast: Hs5	0.73	0.699	0.705	0.664	0.665	0.631	0.654	0.629	0.633
0.1 µM, coculture fibroblast: Hs27A	0.8	0.743	0.7368	0.7251	0.702	0.78	0.691	0.679	0.606
0.1 µM, coculture fibroblast: Hs343T	0.761	0.706	0.67	0.622	0.6059	0.57	0.5681	0.56	0.553
0.1 µM, coculture fibroblast: WS1	0.7822	0.711	0.7	0.631	0.603	0.586	0.568	0.552	0.547
1 µM, coculture fibroblast: C12385	0.756	0.694	0.678	0.609	0.57	0.558	0.549	0.543	0.551
1 µM, coculture fibroblast: H6013	0.783	0.749	0.746	0.738	0.75	0.792	0.764	0.758	0.726
1 µM, coculture fibroblast: H6019	0.739	0.673	0.652	0.587	0.554	0.546	0.512	0.488	0.468
1 µM, coculture fibroblast: H6076	0.73	0.659	0.68	0.647	0.659	0.649	0.682	0.688	0.699
1 µM, coculture fibroblast: H6231	0.71	0.615	0.663	0.583	0.566	0.554	0.551	0.54	0.533
1 µM, coculture fibroblast: HADF	0.788	0.703	0.678	0.655	0.654	0.6827	0.625	0.621	0.59
1 µM, coculture fibroblast: HCFa	0.7521	0.711	0.679	0.6482	0.634	0.654	0.591	0.587	0.535
1 µM, coculture fibroblast: HCPF	0.759	0.704	0.72	0.668	0.647	0.625	0.614	0.606	0.594
1 µM, coculture fibroblast: HHSteC	0.797	0.791	0.761	0.725	0.723	0.743	0.681	0.668	0.624
1 µM, coculture fibroblast: HMF	0.75	0.671	0.67	0.631	0.614	0.588	0.608	0.598	0.601
1 µM, coculture fibroblast: HPFa	0.8797	0.838	0.823	0.778	0.775	0.787	0.717	0.696	0.634
1 µM, coculture fibroblast: HUF	0.792	0.7056	0.686	0.6226	0.5748	0.558	0.535	0.531	0.525
1 µM, coculture fibroblast: Hs5	0.743	0.698	0.7123	0.669	0.66	0.63	0.664	0.655	0.666
1 µM, coculture fibroblast: Hs27A	0.79	0.719	0.732	0.717	0.715	0.804	0.715	0.728	0.662
1 µM, coculture fibroblast: Hs343T	0.7436	0.662	0.668	0.635	0.632	0.606	0.616	0.61	0.611
1 µM, coculture fibroblast: WS1	0.7282	0.665	0.648	0.583	0.54	0.532	0.515	0.5	0.4983
